The list is a part of this screen's results and no random one: it gathers tests that were run many times, whatever their T/C, doses with no T/C, and many T/C values between a quarter and a half above the control. Further doses and runs are listed elsewhere. T/C is the treated group as % of the vehicle group. Some doses have a count of surviving animals in place of a T/C: the source files T/C as zero there, which appears to mark a toxic dose or a test without result, not a measured value. Some survivor counts are full or nearly so, which does not show that the dose was tolerated: the source hardly ever lists a survival T/C far under the control, and the zero likely stands for such cases as well. Survivors were counted at the toxicity check, usually on the fifth day, unless a day is given; later deaths do not show. Schedules are NCI's codes, read here as Q, the interval in days (D) or hours (H), X, the number of doses. Some doses were run more than once; their values stand side by side, smallest first. For survival time, the PubChem record calls one and a half times the control and up active, and a quarter to a half above the control has no call in these data; cut-offs in other NCI protocols can differ. Counts like (3×) count equal records among those shown.

For 15 compounds, T/C and survivor count results are on record in PubChem BioAssay AID194 (DTP/NCI, 2004).

This test relates to BDF1 mice, B16 melanoma s.c., survival/tumor T/C. As to the kind of experiment: NCI In Vivo Anticancer Drug Screen. Data for tumor model B16 Melanoma (subcutaneous) in B6D2F1 (BDF1) mice. Conditions: T/C endpoint: median survival time, higher T/C = longer survival. The protocol:
The antitumor activity of compounds was measured in mice bearing transplantable tumors. Survival or tumor size were measured and the results are expressed as the measurement made in the treated group (T) divided by the measurement made in the vehicle treated control group (C). The tumor model used in this assay is B16 Melanoma (subcutaneous) in B6D2F1 (BDF1) mice

Where [1] appears, read: dose: 16.0 mg/kg/injection, schedule: Q01DX009 (ip), vehicle: Klucel (hydroxypropylcellulose) (HPC).
The mark [2] stands for this setting: dose: 32.0 mg/kg/injection, schedule: Q01DX009 (ip), vehicle: Klucel (hydroxypropylcellulose) (HPC).
Where [3] appears, read: dose: 25.0 mg/kg/injection, schedule: Q01DX009 (ip), vehicle: saline.
The mark [4] stands for this setting: dose: 25.0 mg/kg/injection, schedule: Q01DX009 (ip), vehicle: Klucel (hydroxypropylcellulose) (HPC).
Where [5] appears, read: dose: 50.0 mg/kg/injection, schedule: Q01DX009 (ip), vehicle: Klucel (hydroxypropylcellulose) (HPC).

Take `CC(CN1CC(=O)NC(=O)C1)N1CC(=O)NC(=O)C1` (stereo unspecified): the T/C is 126 % of control (dose: 8.0 mg/kg/injection, schedule: Q01DX009 (ip), vehicle: Klucel (hydroxypropylcellulose) (HPC)); 144 % of control under setting [1]; 127 and 132 % of control under setting [2]; 132 % of control (dose: 100.0 mg/kg/injection, schedule: Q04DX003 (ip), vehicle: saline). The survivor count (dose: 64.0 mg/kg/injection, schedule: Q01DX009 (ip), vehicle: Klucel (hydroxypropylcellulose) (HPC)) is on record as 10 of 10; the survivor count (dose: 128.0 mg/kg/injection, schedule: Q01DX009 (ip), vehicle: Klucel (hydroxypropylcellulose) (HPC)) is listed as 10 of 10; the survivor count (dose: 240.0 mg/kg/injection, schedule: Q01DX009 (ip), vehicle: saline) is on record as 10 of 10; the survivor count (dose: 800.0 mg/kg/injection, schedule: Q04DX003 (ip), vehicle: saline) is recorded as 10 of 10.
`N/C(=N\Cl)C(Cl)(Cl)Cl`: the survivor count (dose: 25.0 mg/kg/injection, schedule: Q01DX009 (ip), vehicle: saline with Tween-80) is 10 of 10.
Take `COc1cccc2c1C(=O)c1c(O)c3c(c(O)c1C2=O)C[C@@](O)(/C(C)=N/NC(=O)c1ccccc1)C[C@@H]3OC1CC(N)C(O)C(C)O1` (stereo partly specified): the T/C is, setting by setting: (dose: 23.0 mg/kg/injection, schedule: Q04DX003 (ip), vehicle: saline) 141 % of control; (dose: 40.0 mg/kg/injection, schedule: Q01DX001 (ip), vehicle: saline) 125 % of control. Also, the survivor count is, setting by setting: (dose: 35.0 mg/kg/injection, schedule: Q04DX003 (ip), vehicle: saline) 9 of 10; (dose: 60.0 mg/kg/injection, schedule: Q01DX001 (ip), vehicle: saline) 6 of 10.
As to `N[C@@H](Cc1ccc(N(CCCl)CCCl)cc1)C(=O)O`, the T/C runs as follows: (dose: 1.25 mg/kg/injection, schedule: Q01DX009 (ip), vehicle: Klucel (hydroxypropylcellulose) (HPC)) 130 % of control; (dose: 2.5 mg/kg/injection, schedule: Q01DX009 (ip), vehicle: Klucel (hydroxypropylcellulose) (HPC)) 140 % of control. For the same compound, the survivor count is 10 of 10 (dose: 5.0 mg/kg/injection, schedule: Q01DX009 (ip), vehicle: Klucel (hydroxypropylcellulose) (HPC)); 10 of 10 (dose: 8.0 mg/kg/injection, schedule: Q01DX009 (ip), vehicle: saline); 10 of 10 (dose: 10.0 mg/kg/injection, schedule: Q01DX009 (ip), vehicle: Klucel (hydroxypropylcellulose) (HPC)); 9 of 10 (dose: 16.0 mg/kg/injection, schedule: Q01DX009 (ip), vehicle: saline); 6 of 10 (dose: 32.0 mg/kg/injection, schedule: Q01DX009 (ip), vehicle: saline); 1 of 10 (dose: 64.0 mg/kg/injection, schedule: Q01DX009 (ip), vehicle: saline). In addition, the survivor count (dose: 128.0 mg/kg/injection, schedule: Q01DX009 (ip), vehicle: saline) is reported as 0 of 10 and the survivor count (dose: 256.0 mg/kg/injection, schedule: Q01DX009 (ip), vehicle: saline) is recorded as 0 of 10.
With `COc1cc([C@@H]2c3cc4c(cc3[C@@H](OC3OC5COC(C)OC5C(O)C3O)[C@H]3COC(=O)[C@H]23)OCO4)cc(OC)c1O` (stereo partly specified), the T/C reads like this: (dose: 4.5 mg/kg/injection, schedule: Q01DX009 (ip), vehicle: saline) 135 % of control; (dose: 18.0 mg/kg/injection, schedule: Q04DX003 (ip), vehicle: saline) 142 % of control; (dose: 27.0 mg/kg/injection, schedule: Q04DX003 (ip), vehicle: saline) 136 % of control. Besides, the survivor count (dose: 75.0 mg/kg/injection, schedule: Q01DX001 (ip), vehicle: saline) was 10 of 10.
In the case of `CN(N=O)C(N)=O`, the survivor count was 10 of 10 under setting [3] and 10 of 10 (dose: 50.0 mg/kg/injection, schedule: Q01DX009 (ip), vehicle: saline).
Take `CCC1=C(C[C@H]2NCCc3cc(OC)c(OC)cc32)C[C@H]2c3cc(OC)c(OC)cc3CCN2C1`: for the setting “dose: 32.0 mg/kg/injection, schedule: Q01DX005 (ip), vehicle: saline”, the survivor count was 8 of 10.
Take `N=c1ccn2c(n1)OC1C(O)C(CO)OC12` (stereo unspecified): the survivor count runs as follows: (dose: 300.0 mg/kg/injection, schedule: Q01DX009 (ip), vehicle: saline) 10 of 10; (dose: 600.0 mg/kg/injection, schedule: Q01DX009 (ip), vehicle: saline) 10 of 10.
As for `c1ccc([As+](c2ccccc2)(c2ccccc2)c2ccccc2)cc1`, the survivor count (dose: 7.5 mg/kg/injection, schedule: Q01DX009 (ip), vehicle: Klucel (hydroxypropylcellulose) (HPC)) is 8 of 10.
With `CS(=O)(=O)OCCCCOS(C)(=O)=O`, the survivor count (dose: 12.5 mg/kg/injection, schedule: Q01DX009 (ip), vehicle: Klucel (hydroxypropylcellulose) (HPC)) is on record as 6 of 6; the survivor count under setting [4] is given as 6 of 6; the survivor count under setting [5] is 5 of 6 and 6 of 6; the survivor count (dose: 100.0 mg/kg/injection, schedule: Q01DX009 (ip), vehicle: Klucel (hydroxypropylcellulose) (HPC)) was 0 of 6, 1 of 6, 2 of 6; the survivor count (dose: 100.0 mg/kg/injection, schedule: Q01DX009 (ip), vehicle: saline with Tween-80) is given as 2 of 6; the survivor count (dose: 200.0 mg/kg/injection, schedule: Q01DX009 (ip), vehicle: Klucel (hydroxypropylcellulose) (HPC)) is listed as 0 of 6. Besides, the survivor count (dose: 200.0 mg/kg/injection, schedule: Q01DX009 (ip), vehicle: saline with Tween-80) is recorded as 0 of 6. Further, the T/C under setting [4] is 101, 111, 114 % of control (2×) and the T/C under setting [5] is 102, 104, 126 % of control.
For `O=C(O)CCCc1ccc(N(CCCl)CCCl)cc1`, the survivor count reads like this: under setting [1], 7 of 10; (dose: 24.0 mg/kg/injection, schedule: Q01DX009 (ip), vehicle: Klucel (hydroxypropylcellulose) (HPC)) 6 of 10; under setting [2], 0 of 10; (dose: 48.0 mg/kg/injection, schedule: Q01DX009 (ip), vehicle: Klucel (hydroxypropylcellulose) (HPC)) 0 of 10.
Turning to `CN(Cc1cnc2nc(N)nc(N)c2n1)c1c(Cl)cc(C(=O)NC(CCC(=O)O)C(=O)O)cc1Cl` (stereo unspecified), the survivor count is 8 of 10 (dose: 1350.0 mg/kg/injection, schedule: Q04DX003 (ip), vehicle: sodium bicarbonate) and 6 of 10 (dose: 1500.0 mg/kg/injection, schedule: Q01DX001 (ip), vehicle: sodium bicarbonate).
As to `CC1(C)N=C(N)N=C(N)N1c1ccc(OCCCNC(=O)Nc2cccc(S(=O)(=O)F)c2)c(Cl)c1`, under setting [3], the T/C was 138 % of control.
With `CN(C)CCCN1c2ccccc2Sc2ccc(Cl)cc21`, where the note is “dose: 0.25 mg/kg/injection, schedule: Q01DX009 (ip), vehicle: saline”, the survivor count is recorded as 10 of 10.
For the compound `CCOC(=O)C1CCC(NC(=O)N(CCCl)N=O)CC1` (stereo unspecified), the survivor count (dose: 59.0 mg/kg/injection, schedule: Q01DX001 (ip), vehicle: gum acacia) is 6 of 10.
